Record: PubChem BioAssay AID504793 (Drosophila RNAi Screening Center, 2011)
The screen tested about 23,000 reagents; shown is an unselected part of those with a known target gene and a result. In the full data, 62 (0.27%) got an active call. 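Calls come from follow-up tests whose scores are not deposited, so confirmed genes may have low counts here; counts are not normalised per plate.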 The raw values are shown without normalisation. The numbers tell different reagents against one gene apart. Names joined by + are all predicted targets of the reagent. No sequences are given here.

Test: 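Knock-downs allowing continued mitosis even though DNA is damaged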 (primary screen)
System: Drosophila S2R+ cells
Reagent: long dsRNA against Drosophila genes, about 0.25 µg dsRNA per well
Time to read-out: 4 days of dsRNA, then 4 hours of drug before read-out
Challenge: doxorubicin 0.5 µM for 4 hours to cause double-strand breaks, in cells also given a low, harmless dose of dsRNA against nbs to sensitise the assay
Read-out: 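Per-well count of mitotic cells stained for phospho-histone H3 after doxorubicin exposure, used as mitotic index; counts are raw and not normalised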
Reading the numbers: mitotic cells: higher = more cells in mitosis, weaker G2 arrest
Call rule: 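a call needs confirmation in secondary tests, with other dsRNAs and a check of mitotic timing without damage, not just a high primary count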
Calls: active = confirmed in follow-up tests; inactive = not confirmed

The first 3 records, ahead of the listing:
CG2991 #1: mitotic cells, replicate 1 = 5; Call = inactive
CG2991 #2: mitotic cells, replicate 1 = 8; Call = inactive
Acsx2: mitotic cells, replicate 1 = 3; Call = inactive

The list itself, from the start:
CG2991 #1: mitotic cells, replicate 1 = 5; Call = inactive
CG2991 #2: mitotic cells, replicate 1 = 8; Call = inactive
Acsx2: mitotic cells, replicate 1 = 3; Call = inactive
CG10738 #1: mitotic cells, replicate 1 = 4; Call = inactive
CG10738 #2: mitotic cells, replicate 1 = 8; Call = inactive
CG18542 + CG32939: mitotic cells, replicate 1 = 4; Call = inactive
CG17999: mitotic cells, replicate 1 = 5; Call = inactive
Obp99b #1: mitotic cells, replicate 1 = 6; Call = inactive
Obp99b #2: mitotic cells, replicate 1 = 3; Call = inactive
sofe: mitotic cells, replicate 1 = 10; Call = inactive
Edg84A: mitotic cells, replicate 1 = 6; Call = inactive
ppk27 #1: mitotic cells, replicate 1 = 7; Call = inactive
ppk27 #2: mitotic cells, replicate 1 = 3; Call = inactive
Spps: mitotic cells, replicate 1 = 6; Call = inactive
CG8924: mitotic cells, replicate 1 = 13; Call = inactive
CG3906 #1: mitotic cells, replicate 1 = 9; Call = inactive
CG3906 #2: mitotic cells, replicate 1 = 5; Call = inactive
HemK2 + Snapin: mitotic cells, replicate 1 = 2; Call = inactive
fu #1: mitotic cells, replicate 1 = 5; Call = inactive
fu #2: mitotic cells, replicate 1 = 6; Call = inactive
AhcyL1 #1: mitotic cells, replicate 1 = 10; Call = inactive
AhcyL1 #2: mitotic cells, replicate 1 = 4; Call = inactive
beat-IV #1: mitotic cells, replicate 1 = 4; Call = inactive
beat-IV #2: mitotic cells, replicate 1 = 14; Call = inactive
